Source: PMC4227867, “Analysis of Nidogen-1/Laminin γ1 Interaction by Cross-Linking, Mass Spectrometry, and Computational Modeling Reveals Multiple Binding Modes” (PLoS ONE, 2014)
These are yes or no findings as the source states them, for the method shown. A result given as binding can be weak or reduced; the word gives no strength.

What was measured:
full-length nidogen-1 [1] = biological target: T1, full-length nidogen-1 (murine, UniProt P10493 29-1245); experiment: SPR; nidogen-1 immobilised by amine coupling on a CM5 chip; laminin variants as mobile analytes; single-cycle kinetics, 25°C, 20 mM HEPES, 100 mM NaCl, 0.05% Tween 20, pH 7.5; 1:1 binding model; apparent Kd; both purified
T1 construct: For photo-cross-linking the protein was made in Leu- and Met-depleted medium with photo-Met and photo-Leu; 13-25% of all leucines and methionines were partially replaced; also called entactin; source: HEK 293 EBNA cells, purified (Nickel-NTA Superflow); not shown: (His)6, N-terminal, kept
T1 sequence (looked up): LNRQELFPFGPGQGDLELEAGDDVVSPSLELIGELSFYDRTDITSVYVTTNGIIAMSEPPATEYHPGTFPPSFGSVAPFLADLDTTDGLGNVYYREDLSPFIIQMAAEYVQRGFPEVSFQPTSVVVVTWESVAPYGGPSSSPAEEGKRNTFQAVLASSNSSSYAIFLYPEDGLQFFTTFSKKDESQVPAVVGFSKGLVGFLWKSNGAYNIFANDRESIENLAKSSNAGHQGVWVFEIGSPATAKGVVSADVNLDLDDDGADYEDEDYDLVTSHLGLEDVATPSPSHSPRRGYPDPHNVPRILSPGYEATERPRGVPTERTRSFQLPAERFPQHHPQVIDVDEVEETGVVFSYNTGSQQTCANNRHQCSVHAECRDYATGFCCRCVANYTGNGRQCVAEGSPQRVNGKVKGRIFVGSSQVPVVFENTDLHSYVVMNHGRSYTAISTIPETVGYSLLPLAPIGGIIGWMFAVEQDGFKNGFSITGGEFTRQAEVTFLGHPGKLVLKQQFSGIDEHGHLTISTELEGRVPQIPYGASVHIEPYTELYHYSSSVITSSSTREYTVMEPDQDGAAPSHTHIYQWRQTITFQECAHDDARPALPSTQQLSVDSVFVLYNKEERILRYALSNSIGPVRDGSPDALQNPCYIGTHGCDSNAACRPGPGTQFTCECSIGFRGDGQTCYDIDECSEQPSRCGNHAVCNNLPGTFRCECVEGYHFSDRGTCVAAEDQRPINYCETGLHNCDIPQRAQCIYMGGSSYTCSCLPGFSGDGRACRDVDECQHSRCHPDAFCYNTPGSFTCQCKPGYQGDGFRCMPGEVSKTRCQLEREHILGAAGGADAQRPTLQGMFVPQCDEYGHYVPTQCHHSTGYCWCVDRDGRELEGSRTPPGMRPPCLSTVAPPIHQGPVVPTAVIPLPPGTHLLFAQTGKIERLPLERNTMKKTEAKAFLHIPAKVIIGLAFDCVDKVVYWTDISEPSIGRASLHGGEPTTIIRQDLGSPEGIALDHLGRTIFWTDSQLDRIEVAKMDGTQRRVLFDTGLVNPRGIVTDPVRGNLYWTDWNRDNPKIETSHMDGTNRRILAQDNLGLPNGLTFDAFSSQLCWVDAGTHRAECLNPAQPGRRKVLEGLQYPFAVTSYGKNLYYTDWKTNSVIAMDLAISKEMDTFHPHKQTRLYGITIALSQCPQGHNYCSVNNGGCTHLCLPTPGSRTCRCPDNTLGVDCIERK

full-length nidogen-1 [2] = biological target: T1, full-length nidogen-1; experiment: cross-linking; BS2G in 200-fold molar excess, 1 to 10 µM protein in 20 mM HEPES, 100 mM NaCl, pH 7.5, room temperature, 30 min; SDS-PAGE, digestion, nano-HPLC/nano-ESI-LTQ-Orbitrap-MS/MS; both purified

laminin γ1 LEb2–4 N836D (murine) (domain or fragment)
binding (full-length nidogen-1 [1]): binds
binding (full-length nidogen-1 [2]): binds
